Source: the supplement of paper PMC11732987, “Enantioselective OTUD7B fragment discovery through chemoproteomics screening and high-throughput optimisation” (Communications Chemistry, 2025)
This is one part of the list. The data scatter; read single values as rough.

The chains behind the UniProt entries cited, without tags or fusion partners. Where a name states a change or a piece, a line headed by the entry shows the natural chain unless it says otherwise. Residues count along the entry.
UniProt O75691, 1754-1774: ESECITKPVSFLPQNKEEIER
UniProt Q9Y5J1: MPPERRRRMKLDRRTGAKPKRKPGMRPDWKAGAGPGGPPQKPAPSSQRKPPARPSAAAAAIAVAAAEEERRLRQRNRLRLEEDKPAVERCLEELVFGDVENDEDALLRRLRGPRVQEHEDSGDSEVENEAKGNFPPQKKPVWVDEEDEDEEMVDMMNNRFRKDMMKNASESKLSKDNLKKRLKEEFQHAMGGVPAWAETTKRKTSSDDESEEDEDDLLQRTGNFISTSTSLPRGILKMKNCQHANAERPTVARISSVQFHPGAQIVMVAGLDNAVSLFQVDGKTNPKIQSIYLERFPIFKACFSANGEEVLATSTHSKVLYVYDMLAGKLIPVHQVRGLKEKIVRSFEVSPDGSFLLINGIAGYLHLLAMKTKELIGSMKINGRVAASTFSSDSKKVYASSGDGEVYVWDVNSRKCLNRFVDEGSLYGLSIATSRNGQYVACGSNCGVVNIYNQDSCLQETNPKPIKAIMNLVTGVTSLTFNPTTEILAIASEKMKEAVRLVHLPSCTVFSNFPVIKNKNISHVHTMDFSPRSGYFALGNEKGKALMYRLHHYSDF
UniProt P61758, whole entry, looked up: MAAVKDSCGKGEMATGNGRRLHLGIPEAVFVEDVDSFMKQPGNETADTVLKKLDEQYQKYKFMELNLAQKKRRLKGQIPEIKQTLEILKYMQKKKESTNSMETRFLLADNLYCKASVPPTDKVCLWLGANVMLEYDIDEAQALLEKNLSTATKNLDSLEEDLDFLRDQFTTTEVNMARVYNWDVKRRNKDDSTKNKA
UniProt O95071: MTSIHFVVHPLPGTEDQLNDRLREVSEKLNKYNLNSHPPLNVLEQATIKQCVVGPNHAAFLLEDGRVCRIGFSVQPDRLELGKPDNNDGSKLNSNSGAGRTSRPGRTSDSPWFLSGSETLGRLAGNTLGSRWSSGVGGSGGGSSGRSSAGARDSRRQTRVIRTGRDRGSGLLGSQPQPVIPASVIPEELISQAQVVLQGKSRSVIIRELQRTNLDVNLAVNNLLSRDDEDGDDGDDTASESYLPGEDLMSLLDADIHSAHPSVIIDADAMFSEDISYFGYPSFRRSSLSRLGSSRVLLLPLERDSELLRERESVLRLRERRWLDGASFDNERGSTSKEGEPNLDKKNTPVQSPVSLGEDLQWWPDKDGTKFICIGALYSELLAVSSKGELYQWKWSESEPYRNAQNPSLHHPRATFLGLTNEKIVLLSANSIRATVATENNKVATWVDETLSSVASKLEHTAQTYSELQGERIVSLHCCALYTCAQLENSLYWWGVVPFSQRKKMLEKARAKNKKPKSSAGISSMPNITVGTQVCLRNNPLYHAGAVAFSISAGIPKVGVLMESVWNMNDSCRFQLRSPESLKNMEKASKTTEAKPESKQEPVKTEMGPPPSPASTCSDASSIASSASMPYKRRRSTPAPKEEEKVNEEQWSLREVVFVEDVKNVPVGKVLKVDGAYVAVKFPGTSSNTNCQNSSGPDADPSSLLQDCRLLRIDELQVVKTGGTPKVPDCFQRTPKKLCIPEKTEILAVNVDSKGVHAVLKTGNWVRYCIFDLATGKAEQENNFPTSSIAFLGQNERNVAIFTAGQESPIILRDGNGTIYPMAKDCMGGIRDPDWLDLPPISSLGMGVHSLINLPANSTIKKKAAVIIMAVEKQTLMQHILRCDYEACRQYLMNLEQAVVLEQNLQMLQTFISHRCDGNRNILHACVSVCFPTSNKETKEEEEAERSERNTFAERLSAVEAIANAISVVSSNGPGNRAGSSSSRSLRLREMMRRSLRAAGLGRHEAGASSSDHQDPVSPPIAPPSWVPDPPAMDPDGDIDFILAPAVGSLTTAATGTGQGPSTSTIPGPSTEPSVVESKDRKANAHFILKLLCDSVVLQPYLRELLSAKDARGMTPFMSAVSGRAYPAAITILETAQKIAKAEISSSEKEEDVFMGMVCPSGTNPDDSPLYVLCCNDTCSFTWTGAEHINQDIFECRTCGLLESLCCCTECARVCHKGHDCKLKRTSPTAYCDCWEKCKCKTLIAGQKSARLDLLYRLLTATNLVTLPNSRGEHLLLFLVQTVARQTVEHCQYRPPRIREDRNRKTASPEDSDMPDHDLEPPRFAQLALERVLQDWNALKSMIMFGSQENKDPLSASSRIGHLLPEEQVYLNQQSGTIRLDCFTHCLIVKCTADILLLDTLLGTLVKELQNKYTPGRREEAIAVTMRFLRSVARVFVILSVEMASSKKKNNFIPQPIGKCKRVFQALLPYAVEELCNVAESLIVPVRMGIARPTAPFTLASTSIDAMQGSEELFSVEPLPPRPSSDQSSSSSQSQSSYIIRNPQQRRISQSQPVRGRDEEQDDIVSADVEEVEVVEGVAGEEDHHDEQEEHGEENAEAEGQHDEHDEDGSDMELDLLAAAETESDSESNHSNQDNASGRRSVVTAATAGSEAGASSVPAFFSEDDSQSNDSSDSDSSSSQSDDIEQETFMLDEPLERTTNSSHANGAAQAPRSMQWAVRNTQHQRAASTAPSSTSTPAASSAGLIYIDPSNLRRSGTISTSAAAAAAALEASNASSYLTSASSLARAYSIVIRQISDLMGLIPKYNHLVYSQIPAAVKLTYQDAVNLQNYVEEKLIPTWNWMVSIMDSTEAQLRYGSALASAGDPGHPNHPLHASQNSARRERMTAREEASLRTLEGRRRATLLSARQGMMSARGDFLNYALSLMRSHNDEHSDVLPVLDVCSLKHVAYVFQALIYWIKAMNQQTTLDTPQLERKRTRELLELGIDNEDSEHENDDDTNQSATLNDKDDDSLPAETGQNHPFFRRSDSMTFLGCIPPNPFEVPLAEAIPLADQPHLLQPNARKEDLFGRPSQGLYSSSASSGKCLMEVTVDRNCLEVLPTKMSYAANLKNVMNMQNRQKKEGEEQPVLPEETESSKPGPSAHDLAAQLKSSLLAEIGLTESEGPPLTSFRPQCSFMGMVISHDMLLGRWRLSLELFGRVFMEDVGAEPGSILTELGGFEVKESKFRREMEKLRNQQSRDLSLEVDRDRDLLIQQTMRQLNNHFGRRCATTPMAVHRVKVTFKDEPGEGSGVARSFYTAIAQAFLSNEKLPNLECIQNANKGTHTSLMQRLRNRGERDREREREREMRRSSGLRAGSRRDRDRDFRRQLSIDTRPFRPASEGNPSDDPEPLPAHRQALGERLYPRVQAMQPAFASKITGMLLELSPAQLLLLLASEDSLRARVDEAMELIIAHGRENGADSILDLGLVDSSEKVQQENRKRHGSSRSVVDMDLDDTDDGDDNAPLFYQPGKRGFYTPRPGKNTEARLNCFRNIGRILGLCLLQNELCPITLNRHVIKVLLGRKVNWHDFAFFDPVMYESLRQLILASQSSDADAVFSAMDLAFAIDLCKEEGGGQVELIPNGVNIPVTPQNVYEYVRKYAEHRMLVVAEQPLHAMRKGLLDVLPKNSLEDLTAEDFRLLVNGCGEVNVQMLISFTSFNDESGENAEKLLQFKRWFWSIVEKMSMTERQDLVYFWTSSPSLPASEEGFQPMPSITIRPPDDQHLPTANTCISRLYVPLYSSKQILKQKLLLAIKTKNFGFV
UniProt O95292: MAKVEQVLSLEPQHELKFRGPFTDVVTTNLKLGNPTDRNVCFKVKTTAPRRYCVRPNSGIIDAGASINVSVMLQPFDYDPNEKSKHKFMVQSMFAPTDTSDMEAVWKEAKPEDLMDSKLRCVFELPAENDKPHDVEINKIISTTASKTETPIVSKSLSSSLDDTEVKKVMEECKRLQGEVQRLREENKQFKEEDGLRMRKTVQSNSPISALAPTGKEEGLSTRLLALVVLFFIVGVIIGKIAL
UniProt O94966: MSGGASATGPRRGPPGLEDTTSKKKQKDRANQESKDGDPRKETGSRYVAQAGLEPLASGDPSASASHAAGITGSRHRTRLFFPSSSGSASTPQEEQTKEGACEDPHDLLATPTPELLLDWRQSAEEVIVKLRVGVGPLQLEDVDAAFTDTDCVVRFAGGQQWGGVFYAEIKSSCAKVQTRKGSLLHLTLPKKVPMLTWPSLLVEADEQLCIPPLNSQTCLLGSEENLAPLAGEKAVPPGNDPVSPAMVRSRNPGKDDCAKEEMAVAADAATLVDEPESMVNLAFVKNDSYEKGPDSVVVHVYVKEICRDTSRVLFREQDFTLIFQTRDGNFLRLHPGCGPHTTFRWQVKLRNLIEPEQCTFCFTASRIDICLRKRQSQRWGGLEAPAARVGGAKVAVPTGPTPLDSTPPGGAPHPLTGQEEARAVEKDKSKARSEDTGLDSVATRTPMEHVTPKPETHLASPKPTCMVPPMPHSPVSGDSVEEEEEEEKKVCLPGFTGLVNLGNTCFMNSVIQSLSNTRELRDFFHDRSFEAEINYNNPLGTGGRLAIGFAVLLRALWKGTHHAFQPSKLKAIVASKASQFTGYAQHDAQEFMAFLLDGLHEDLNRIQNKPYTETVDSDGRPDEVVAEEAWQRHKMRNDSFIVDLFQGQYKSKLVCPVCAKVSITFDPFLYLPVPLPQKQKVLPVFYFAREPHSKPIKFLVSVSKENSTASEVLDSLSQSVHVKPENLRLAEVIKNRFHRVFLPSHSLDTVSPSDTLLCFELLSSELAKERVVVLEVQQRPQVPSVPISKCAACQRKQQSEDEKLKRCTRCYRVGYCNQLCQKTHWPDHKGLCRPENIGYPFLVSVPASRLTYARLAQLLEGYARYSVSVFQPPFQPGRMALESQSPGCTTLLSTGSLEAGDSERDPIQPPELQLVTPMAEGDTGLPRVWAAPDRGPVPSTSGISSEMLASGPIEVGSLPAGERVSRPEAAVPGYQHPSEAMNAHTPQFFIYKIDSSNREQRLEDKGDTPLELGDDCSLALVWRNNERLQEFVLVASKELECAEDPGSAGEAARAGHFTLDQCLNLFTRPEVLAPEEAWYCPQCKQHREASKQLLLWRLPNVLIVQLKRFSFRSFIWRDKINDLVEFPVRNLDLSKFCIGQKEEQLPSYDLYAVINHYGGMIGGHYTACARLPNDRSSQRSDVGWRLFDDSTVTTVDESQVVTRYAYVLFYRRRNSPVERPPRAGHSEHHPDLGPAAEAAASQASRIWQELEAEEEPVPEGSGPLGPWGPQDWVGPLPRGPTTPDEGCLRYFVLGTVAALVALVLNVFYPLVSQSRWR
UniProt A6NIH7: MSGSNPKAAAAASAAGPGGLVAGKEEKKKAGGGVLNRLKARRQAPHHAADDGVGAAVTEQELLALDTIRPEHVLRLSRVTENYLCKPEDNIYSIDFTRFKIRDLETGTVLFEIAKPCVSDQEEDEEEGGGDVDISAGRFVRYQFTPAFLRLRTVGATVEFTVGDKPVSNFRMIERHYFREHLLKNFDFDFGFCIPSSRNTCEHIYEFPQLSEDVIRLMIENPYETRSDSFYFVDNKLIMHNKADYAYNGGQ
UniProt P40337, whole entry, looked up: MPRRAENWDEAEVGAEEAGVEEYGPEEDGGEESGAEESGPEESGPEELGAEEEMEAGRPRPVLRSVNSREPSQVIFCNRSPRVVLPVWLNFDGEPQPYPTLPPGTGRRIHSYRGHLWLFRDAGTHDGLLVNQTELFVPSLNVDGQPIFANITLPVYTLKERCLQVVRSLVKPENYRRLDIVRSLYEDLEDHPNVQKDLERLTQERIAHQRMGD
UniProt Q86T82: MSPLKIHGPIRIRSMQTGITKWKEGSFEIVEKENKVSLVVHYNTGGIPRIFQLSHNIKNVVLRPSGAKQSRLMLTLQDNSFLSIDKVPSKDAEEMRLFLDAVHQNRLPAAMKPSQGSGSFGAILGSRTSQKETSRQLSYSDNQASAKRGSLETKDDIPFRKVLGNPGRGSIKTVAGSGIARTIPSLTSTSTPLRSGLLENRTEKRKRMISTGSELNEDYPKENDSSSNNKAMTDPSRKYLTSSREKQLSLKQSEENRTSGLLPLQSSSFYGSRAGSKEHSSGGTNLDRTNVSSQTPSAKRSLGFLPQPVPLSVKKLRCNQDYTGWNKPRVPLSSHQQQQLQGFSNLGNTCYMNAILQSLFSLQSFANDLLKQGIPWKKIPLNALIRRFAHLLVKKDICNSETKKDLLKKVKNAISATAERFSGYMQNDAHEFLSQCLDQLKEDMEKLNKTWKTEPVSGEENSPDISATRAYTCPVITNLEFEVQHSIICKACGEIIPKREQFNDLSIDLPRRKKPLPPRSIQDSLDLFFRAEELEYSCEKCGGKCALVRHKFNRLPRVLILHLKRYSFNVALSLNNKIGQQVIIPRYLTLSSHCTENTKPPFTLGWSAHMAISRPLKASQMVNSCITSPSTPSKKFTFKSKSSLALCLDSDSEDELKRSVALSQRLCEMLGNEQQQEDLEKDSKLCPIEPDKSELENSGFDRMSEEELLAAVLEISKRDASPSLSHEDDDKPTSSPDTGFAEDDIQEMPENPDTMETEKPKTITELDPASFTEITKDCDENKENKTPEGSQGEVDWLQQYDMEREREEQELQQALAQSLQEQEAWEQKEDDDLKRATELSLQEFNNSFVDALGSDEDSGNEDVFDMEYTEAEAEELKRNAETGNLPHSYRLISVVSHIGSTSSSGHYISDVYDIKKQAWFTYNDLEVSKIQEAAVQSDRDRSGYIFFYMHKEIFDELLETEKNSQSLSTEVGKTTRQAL

How the values were obtained:
[1] = compound: ClCC(=O)N[C@H]1CCCc2ccccc12; assay: log2 mean competition ratio of IA-DTB cysteine labelling (DMSO/compound) (log2 ratio); higher = stronger cysteine engagement by compound; conditions: treatment time: 4 h, cell line lysate: HEK293T
Method: (§1)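 IA-DTB competitive cysteine chemoproteomics in HEK293T RIPA lysate. Lysates were treated with compound 29 or 30 at 50 or 200 µM for 4 h, then IA-DTB (500 µM, 1 h), trypsin-digested, NeutrAvidin-enriched and analysed by diaPASEF. Competition ratio = intensity DMSO / intensity compound (n=4 treated, n=64 DMSO); binding: mean log2 CR ≥ 1 and p ≤ 0.05 plus QC filters. Target is the cysteine site.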

[2] = compound: ClCC(=O)N[C@@H]1CCCc2ccccc12; assay: as above; conditions: treatment time: 4 h, cell line lysate: HEK293T
Method: as §1

Row | Target | log2 mean competition ratio ([1]; 50 µM) | log2 mean competition ratio ([1]; 200 µM) | log2 mean competition ratio ([2]; 50 µM) | log2 mean competition ratio ([2]; 200 µM)
1 | VPS18 C741 (UniProt Q9P253) | -0.884 | 0.257 | – | –
2 | UNC45A C223 (UniProt Q9H3U1) | -0.101 | -0.168 | – | –
3 | UPF2 C990 (UniProt Q9HAU5) | -0.572 | -0.0667 | – | –
4 | UIMC1 C661 (UniProt Q96RL1) | -0.213 | 0.226 | – | –
5 | USP34 C741 (UniProt Q70CQ2) | -0.182 | 0.991 | – | –
6 | USP24 C2160 (UniProt Q9UPU5) | 0.21 | 0.685 | – | –
7 | VAX2 C76 | 0.00661 | 0.792 | – | –
8 | UTP14A C522 (UniProt Q9BVJ6) | -0.306 | -0.0885 | -0.204 | 0.107
9 | USP38 C834 (UniProt Q8NB14) | -0.283 | 0.0214 | – | –
10 | UPF1 C374 (UniProt Q92900) | -0.47 | 0.00592 | – | –
11 | UNC45A C535 (UniProt Q9H3U1) | -0.669 | 0.144 | 0.247 | 0.246
12 | UGDH C64 (UniProt O60701) | 0.127 | 0.305 | – | –
13 | UTP20 C1757 (UniProt O75691) | -0.107 | -0.0892 | – | –
14 | URI1 C167 (UniProt O94763) | -0.396 | -0.495 | – | –
15 | USP24 C172 (UniProt Q9UPU5) | -0.0802 | 0.314 | – | –
16 | UTP18 C302 (UniProt Q9Y5J1) | -0.42 | -0.301 | – | –
17 | UBTF C68 (UniProt P17480) | 0.393 | 0.0755 | – | –
18 | VPS26C C243 (UniProt O14972) | 0.2 | 0.452 | – | –
19 | USP7 C315 | 0.0713 | 0.0565 | – | –
20 | USP28 C701 (UniProt Q96RU2) | -0.0762 | 0.284 | – | –
21 | UQCRC1 C380 (UniProt P31930) | -0.296 | -0.0906 | – | –
22 | VBP1 C113 (UniProt P61758) | 0.403 | 0.433 | – | –
23 | VCPIP1 C816 (UniProt Q96JH7) | 0.235 | -0.337 | – | –
24 | VARS2 C230 | 0.00267 | 0.124 | – | –
25 | UTP20 C1730 (UniProt O75691) | -0.313 | 0.461 | – | –

As entered above:
log2 mean competition ratio ([1]; 200 µM), VPS26C C243 (UniProt O14972) is entered as 0.452
log2 mean competition ratio ([1]; 200 µM), UTP20 C1757 (UniProt O75691) is entered as -0.0892

(listing goes on)

Row | Target | log2 mean competition ratio ([1]; 50 µM) | log2 mean competition ratio ([1]; 200 µM) | log2 mean competition ratio ([2]; 50 µM) | log2 mean competition ratio ([2]; 200 µM)
26 | USP42 C867 (UniProt Q9H9J4) | -0.258 | -0.218 | – | –
27 | UBR5 C2314 (UniProt O95071) | 0.0934 | -0.197 | – | –
28 | UPF3B C319 (UniProt Q9BZI7) | 0.267 | -0.00942 | – | –
29 | USP54 C1270 (UniProt Q70EL1) | 0.466 | 0.19 | – | –
30 | VAPB C121 (UniProt O95292) | 0.0444 | -0.0572 | – | –
31 | VCL C85 (UniProt P18206) | 0.0456 | -0.162 | – | –
32 | USP19 C1042 (UniProt O94966) | 0.07 | -0.274 | – | –
33 | UGGT1 C1386 (UniProt Q9NYU2) | 0.405 | 0.355 | – | –
34 | UFL1 C32 (UniProt O94874) | -0.00719 | -0.0245 | – | –
35 | UPF2 C1107 (UniProt Q9HAU5) | -0.165 | -0.743 | – | –
36 | UFL1 C372 (UniProt O94874) | -0.171 | 0.0238 | – | –
37 | USP8 C748 (UniProt P40818) | 0.301 | 0.501 | – | –
38 | USP9X C1061 (UniProt Q93008) | 0.634 | -0.0221 | – | –
39 | UNC119B C201 (UniProt A6NIH7) | -0.0688 | 0.373 | – | –
40 | VPS18 C433 (UniProt Q9P253) | 0.28 | 0.15 | – | –
41 | UHRF1BP1L C1235 (UniProt A0JNW5) | 0.542 | -0.0913 | – | –
42 | UBR5 C2094 (UniProt O95071) | 0.0145 | 0.0731 | – | –
43 | VKORC1L1 C58 | 0.449 | 0.0739 | – | –
44 | USP32 C786 (UniProt Q8NFA0) | -0.174 | 0.151 | – | –
45 | VHL C77 (UniProt P40337) | 0.351 | -0.12 | – | –
46 | VPS33B C259 (UniProt Q9H267) | 0.135 | -0.135 | – | –
47 | VCPIP1 C397 (UniProt Q96JH7) | -0.174 | 0.0568 | – | –
48 | VDAC2 C47 | 0.182 | 0.151 | – | –
49 | USP37 C538 (UniProt Q86T82) | -0.304 | -0.139 | – | –
